For part of these data: A negative result means that nothing was seen under these conditions. For part of these data: Where cells or extracts were used, other partners may take part.
Columns and labels:
[1] = test system: Insulin-like growth factor 1 receptor (IGF-1R); test: filter binding; conditions: specificity control, purified recombinant protein, single-stranded DNA
[2] = test system: Insulin receptor, overexpressed on Rat-1 fibroblasts (Rat-1/hIR) (Homo sapiens); test: flow cytometry; conditions: 6 Nap-dU stated (n positions) [n positions 3,4,10,14,16,20,24 = modified dU]; increased FITC-insulin binding (positive cooperativity), 0.02-1 uM; agonist of Y1150/Y1151 phosphorylation (FIG. 2d); protein on the cell surface; single-stranded DNA; variant of IR-A62F

Chains of the proteins cited; added tags and fusions are not shown. A line that says so, or that is headed by a name, gives the form on record, which may keep a tag or linker.
Insulin receptor, overexpressed on Rat-1 fibroblasts (Rat-1/hIR) (Homo sapiens), one chain, as listed by the source, chain 2 of 2: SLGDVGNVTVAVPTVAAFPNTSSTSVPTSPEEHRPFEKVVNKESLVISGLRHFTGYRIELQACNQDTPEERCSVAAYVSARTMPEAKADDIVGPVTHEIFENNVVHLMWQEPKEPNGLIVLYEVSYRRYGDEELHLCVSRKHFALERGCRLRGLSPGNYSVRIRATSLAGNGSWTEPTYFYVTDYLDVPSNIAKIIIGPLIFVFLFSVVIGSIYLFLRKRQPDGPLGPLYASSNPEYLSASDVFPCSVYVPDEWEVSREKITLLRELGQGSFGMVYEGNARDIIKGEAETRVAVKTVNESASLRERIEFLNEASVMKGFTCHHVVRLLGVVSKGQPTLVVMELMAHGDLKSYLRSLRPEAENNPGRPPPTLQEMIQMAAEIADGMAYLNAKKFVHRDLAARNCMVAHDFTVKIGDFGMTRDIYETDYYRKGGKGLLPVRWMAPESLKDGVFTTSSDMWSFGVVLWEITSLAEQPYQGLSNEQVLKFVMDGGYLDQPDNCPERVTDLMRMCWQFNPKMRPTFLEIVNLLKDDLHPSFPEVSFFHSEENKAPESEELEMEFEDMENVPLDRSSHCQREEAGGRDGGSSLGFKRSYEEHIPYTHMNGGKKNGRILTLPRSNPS

CATTACGCATGAGTCTAGATCCGTCAG [IR-A62]
binding result ([1]; 6 Nap-dU stated (n positions) [n positions 3,4,10,14,16,20,24 = modified dU], variant of IR-A62F): no binding
binding result [2]: binds

CGCCTGGTGTTAAGACAACCTCTAGGTCAGGCG [IR-A48]
binding result ([1]; 6 Nap-dU (n positions) [n positions 8,10,11,21,23,27 = modified dU], no IGF-1R phosphorylation either, variant of IR-A48F): no binding
